According to the supplement of paper PMC10849652:
This is one part of the list.

Chains of the proteins cited; added tags and fusions are not shown. Lines headed by an entry give the natural chain unless they say otherwise; changes in a name come on top.
UniProt Q99952: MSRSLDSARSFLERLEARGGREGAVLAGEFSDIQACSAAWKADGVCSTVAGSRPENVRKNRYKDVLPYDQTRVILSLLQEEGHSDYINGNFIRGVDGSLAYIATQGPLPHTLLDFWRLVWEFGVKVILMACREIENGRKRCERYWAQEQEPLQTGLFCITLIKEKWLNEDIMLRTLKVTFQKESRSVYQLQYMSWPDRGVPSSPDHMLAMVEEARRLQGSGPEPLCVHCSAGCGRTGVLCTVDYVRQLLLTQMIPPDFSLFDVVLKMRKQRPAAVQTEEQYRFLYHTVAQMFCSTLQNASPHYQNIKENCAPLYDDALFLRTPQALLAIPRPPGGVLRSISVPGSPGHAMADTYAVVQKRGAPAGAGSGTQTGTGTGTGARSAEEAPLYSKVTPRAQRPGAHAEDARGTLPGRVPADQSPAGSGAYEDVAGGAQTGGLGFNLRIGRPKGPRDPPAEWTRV
UniProt Q13332: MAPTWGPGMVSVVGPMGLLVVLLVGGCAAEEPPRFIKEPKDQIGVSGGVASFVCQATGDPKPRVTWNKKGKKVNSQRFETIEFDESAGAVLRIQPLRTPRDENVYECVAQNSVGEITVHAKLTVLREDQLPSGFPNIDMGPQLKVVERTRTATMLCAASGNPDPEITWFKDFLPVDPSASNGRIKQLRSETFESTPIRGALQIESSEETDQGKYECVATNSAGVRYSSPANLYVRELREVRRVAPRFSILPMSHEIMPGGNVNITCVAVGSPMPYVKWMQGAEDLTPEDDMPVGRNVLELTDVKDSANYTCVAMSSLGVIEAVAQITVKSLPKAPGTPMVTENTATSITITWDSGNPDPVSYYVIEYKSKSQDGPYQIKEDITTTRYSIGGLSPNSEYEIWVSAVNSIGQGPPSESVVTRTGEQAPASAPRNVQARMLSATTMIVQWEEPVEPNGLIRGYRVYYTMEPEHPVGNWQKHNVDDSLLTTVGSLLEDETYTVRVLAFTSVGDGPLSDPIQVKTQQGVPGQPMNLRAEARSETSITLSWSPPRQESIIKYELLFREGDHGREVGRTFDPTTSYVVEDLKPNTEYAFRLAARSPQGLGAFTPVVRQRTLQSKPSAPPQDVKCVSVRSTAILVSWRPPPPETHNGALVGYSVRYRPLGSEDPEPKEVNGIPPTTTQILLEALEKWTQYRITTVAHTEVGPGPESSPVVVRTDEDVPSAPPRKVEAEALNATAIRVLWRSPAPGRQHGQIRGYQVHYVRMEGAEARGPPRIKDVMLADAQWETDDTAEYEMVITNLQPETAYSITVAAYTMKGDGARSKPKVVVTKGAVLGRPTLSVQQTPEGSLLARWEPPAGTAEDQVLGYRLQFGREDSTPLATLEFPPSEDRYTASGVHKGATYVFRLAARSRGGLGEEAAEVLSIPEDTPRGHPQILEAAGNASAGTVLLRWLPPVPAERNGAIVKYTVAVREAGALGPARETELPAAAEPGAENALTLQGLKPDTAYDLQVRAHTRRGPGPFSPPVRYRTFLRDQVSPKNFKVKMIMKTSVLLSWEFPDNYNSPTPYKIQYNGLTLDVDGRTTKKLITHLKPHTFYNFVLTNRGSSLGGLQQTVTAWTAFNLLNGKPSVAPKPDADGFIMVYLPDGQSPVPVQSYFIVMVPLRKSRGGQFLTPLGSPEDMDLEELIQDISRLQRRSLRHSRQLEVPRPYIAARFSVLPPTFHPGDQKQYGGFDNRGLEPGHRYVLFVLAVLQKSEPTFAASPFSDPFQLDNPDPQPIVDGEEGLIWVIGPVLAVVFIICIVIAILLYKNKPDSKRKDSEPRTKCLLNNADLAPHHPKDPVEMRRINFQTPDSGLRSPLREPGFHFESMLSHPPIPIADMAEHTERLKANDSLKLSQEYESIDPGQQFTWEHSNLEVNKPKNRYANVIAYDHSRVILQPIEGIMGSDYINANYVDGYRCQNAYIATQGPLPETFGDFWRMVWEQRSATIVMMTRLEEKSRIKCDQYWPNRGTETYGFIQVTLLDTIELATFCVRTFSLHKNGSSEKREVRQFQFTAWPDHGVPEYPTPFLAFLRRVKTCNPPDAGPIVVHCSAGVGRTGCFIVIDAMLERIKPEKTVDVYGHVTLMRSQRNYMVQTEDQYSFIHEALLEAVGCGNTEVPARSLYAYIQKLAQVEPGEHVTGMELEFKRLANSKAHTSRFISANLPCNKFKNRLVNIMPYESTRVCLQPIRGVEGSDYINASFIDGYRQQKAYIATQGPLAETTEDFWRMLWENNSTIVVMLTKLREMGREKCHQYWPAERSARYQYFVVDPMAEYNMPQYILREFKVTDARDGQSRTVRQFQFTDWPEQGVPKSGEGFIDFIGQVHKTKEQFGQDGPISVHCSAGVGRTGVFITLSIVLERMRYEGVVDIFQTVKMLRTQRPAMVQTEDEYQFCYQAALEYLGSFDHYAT
UniProt P28065: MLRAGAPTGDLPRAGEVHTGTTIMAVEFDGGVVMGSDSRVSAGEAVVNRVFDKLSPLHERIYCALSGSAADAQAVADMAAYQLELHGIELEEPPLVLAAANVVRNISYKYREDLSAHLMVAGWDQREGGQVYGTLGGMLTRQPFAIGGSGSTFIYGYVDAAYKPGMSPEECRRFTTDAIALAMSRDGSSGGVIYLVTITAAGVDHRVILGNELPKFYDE
UniProt Q9UJV8: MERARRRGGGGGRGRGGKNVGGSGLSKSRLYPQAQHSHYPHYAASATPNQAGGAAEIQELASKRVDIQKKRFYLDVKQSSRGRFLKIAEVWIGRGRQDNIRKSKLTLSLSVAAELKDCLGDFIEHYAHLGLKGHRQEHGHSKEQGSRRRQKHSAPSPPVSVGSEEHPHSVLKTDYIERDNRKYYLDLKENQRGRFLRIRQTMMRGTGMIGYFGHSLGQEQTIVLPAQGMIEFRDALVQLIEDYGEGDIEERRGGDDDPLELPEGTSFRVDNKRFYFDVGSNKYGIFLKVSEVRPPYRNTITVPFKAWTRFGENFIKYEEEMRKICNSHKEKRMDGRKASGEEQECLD
UniProt Q9UHX1: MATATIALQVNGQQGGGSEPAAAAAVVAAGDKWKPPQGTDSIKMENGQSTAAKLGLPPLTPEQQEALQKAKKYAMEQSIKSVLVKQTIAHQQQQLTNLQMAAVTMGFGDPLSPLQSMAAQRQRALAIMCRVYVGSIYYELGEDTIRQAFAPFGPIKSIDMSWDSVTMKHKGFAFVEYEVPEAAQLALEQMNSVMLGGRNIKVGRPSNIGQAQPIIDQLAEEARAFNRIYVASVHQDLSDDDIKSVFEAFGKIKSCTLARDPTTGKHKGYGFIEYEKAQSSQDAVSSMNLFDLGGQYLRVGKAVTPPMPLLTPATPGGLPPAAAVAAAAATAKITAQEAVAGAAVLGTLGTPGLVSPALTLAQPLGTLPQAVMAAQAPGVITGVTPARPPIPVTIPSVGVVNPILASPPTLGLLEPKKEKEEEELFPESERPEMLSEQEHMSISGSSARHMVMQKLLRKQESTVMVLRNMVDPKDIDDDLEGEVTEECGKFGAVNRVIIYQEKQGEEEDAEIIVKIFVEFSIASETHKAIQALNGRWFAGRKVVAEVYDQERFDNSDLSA
UniProt P28062: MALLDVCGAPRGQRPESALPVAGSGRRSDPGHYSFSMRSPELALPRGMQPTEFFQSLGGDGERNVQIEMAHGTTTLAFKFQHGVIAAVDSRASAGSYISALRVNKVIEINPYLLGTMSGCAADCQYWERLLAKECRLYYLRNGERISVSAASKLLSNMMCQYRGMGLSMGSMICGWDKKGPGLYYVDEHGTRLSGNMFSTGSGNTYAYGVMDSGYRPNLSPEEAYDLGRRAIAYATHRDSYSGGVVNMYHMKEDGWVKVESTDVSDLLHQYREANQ
UniProt Q03393: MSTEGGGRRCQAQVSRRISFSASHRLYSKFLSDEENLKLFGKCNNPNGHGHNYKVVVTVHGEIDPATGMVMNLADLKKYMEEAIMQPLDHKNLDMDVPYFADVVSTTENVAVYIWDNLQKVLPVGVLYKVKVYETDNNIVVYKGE
UniProt P43115: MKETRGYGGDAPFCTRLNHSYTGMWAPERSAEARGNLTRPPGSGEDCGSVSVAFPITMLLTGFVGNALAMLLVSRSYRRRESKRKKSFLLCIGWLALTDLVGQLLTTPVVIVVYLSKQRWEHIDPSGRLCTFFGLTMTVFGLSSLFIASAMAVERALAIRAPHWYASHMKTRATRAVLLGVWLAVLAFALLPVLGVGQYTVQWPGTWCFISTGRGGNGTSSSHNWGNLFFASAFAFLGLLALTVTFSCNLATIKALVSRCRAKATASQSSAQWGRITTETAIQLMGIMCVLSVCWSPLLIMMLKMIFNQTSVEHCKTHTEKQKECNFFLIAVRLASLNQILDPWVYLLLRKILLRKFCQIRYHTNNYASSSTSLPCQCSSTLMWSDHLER
UniProt Q14671: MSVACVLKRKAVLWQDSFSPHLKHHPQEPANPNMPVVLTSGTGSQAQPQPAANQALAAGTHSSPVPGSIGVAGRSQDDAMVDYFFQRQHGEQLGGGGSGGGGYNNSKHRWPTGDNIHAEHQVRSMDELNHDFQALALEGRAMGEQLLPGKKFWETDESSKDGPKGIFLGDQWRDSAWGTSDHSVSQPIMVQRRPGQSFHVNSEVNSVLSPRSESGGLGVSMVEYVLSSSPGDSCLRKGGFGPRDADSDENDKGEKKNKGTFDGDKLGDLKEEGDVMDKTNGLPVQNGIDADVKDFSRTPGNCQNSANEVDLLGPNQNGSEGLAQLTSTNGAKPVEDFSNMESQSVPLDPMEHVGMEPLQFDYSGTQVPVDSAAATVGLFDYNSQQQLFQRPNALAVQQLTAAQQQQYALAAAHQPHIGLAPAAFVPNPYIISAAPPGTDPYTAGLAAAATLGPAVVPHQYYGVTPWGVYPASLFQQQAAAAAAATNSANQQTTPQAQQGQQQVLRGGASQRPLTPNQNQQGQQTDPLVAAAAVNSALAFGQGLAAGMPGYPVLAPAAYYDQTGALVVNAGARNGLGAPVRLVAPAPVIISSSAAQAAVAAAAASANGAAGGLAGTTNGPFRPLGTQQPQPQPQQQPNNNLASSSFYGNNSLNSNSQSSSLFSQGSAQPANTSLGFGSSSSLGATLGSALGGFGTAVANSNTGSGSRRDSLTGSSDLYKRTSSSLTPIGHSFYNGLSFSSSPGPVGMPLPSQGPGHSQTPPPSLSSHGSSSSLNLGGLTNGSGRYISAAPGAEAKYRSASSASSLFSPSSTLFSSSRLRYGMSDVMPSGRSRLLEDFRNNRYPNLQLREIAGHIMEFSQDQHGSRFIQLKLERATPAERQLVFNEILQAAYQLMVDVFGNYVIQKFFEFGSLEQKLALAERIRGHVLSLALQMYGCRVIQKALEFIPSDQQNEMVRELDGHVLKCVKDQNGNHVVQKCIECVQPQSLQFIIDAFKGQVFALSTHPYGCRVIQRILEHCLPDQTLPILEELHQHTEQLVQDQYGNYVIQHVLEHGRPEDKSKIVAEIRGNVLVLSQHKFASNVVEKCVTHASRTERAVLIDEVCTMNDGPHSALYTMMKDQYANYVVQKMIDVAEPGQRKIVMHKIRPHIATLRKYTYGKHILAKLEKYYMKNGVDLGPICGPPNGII
UniProt Q9NYI0: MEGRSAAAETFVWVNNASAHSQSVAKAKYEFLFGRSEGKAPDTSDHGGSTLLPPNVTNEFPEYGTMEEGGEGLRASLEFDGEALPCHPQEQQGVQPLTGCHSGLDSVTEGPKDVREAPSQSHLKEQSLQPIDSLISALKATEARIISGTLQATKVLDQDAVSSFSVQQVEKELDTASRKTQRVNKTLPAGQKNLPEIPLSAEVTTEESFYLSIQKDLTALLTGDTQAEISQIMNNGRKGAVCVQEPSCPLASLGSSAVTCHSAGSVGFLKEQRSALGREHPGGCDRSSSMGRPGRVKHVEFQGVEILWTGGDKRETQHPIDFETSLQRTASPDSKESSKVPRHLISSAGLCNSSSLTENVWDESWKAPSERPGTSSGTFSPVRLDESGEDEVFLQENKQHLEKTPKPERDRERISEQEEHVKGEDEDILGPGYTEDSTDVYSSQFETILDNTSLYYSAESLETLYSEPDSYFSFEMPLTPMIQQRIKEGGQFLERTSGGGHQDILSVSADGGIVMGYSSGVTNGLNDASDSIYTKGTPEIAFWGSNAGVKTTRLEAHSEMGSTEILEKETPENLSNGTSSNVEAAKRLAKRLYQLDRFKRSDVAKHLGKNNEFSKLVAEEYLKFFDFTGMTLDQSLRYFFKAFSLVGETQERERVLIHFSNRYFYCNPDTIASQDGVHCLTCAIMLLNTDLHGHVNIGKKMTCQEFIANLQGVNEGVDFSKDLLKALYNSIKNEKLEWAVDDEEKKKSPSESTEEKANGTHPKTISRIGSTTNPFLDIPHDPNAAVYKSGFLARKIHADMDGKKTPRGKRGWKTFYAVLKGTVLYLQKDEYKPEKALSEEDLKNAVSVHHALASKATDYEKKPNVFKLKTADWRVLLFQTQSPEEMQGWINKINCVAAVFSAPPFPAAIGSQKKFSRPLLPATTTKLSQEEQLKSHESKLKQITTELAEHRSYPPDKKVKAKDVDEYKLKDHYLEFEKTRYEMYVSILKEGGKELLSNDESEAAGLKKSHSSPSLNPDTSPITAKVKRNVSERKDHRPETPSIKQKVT

Compound: NC(=O)Nc1cc(-c2cccc(F)c2)sc1C(=O)N[C@H]1CCCNC1
Test: log2 fold change, soluble protein after heating vs DMSO (PISA); higher = thermal stabilisation; K562 cells, 10 uM, 30 min; active = over 0.2 and 3.5 SD of the protein, either way, in both replicates (recomputed)
In short: (§1)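 K562 cells at 2×10^6 cells/mL were treated for 30 min with 10 μM compound, and aliquots were heated for 3 min over 48°C-58°C before pooling. Extraction used PBS with 0.5% NP-40 at 4°C, and soluble protein was the supernatant after 21,000xg for 90 min, measured by TMTpro 16plex LC-MS/MS with channel sums equalised. Thermal stability values, relative to control samples and from duplicates, are log2 fold changes.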

log2 fold change, inactive:
PTBP2 isoform 3 (UniProt Q9UKA9) 0.095, PSEN1 (UniProt P49768) -0.052, PYGO2 (UniProt Q9BRQ0) 0.129, R3HCC1L (UniProt Q7Z5L2) -0.321, R3HCC1 (UniProt Q9Y3T6) -0.239, PSD4 (UniProt Q8NDX1) 0.047, PTPN18 (UniProt Q99952) -0.029, PTPN7 isoform 3 (UniProt P35236) 0.012, PTPRS (UniProt Q13332) -0.169, PSMB9 (UniProt P28065) -0.122, PUS1 (UniProt Q9Y606) -0.162, PTPRJ (UniProt Q12913) -0.253, PSMC3 (UniProt E9PLG2) -0.62, PUSL1 (UniProt Q8N0Z8) 0.164, PSMB5 isoform 3 (UniProt P28074) -0.373, PURG (UniProt Q9UJV8) -0.049

Compound: NC(=O)c1cnc(N[C@@H]2CCCC[C@@H]2N)nc1Nc1cccc(-n2nccn2)c1
Test: as above
In short: as §1

log2 fold change, inactive:
PYCR1 (UniProt J3QKT4) -0.039, PUF60 isoform 2 (UniProt Q9UHX1) 0.024, PSMB8 (UniProt P28062) 0.088, R3HCC1L (UniProt Q7Z5L2) -0.023, R3HCC1 (UniProt Q9Y3T6) 0.016, PSD4 (UniProt Q8NDX1) 0.073, PTS (UniProt Q03393) -0.006, PTGER3 isoform 2 (UniProt P43115) -0.062, PSMA3 (UniProt H0YJ03) -0.059, PTRH1 (UniProt Q86Y79) -0.077, PTPRS (UniProt Q13332) 0.271, PRUNE2 isoform 3 (UniProt Q8WUY3) 0.025, PUM1 (UniProt Q14671) 0.058, PSMB9 (UniProt P28065) -0.102, PUS1 (UniProt Q9Y606) -0.019, PSMB5 isoform 3 (UniProt P28074) -0.431, PSMC3IP (UniProt Q9P2W1) -0.006

log2 fold change, active:
PSD3 (UniProt Q9NYI0) -0.262
